Results taken from doi:10.1101/538223.

The chains behind the UniProt entries cited, without tags or fusion partners. Where a name states a change or a piece, a line headed by the entry shows the natural chain unless it says otherwise.
UniProt Q14161: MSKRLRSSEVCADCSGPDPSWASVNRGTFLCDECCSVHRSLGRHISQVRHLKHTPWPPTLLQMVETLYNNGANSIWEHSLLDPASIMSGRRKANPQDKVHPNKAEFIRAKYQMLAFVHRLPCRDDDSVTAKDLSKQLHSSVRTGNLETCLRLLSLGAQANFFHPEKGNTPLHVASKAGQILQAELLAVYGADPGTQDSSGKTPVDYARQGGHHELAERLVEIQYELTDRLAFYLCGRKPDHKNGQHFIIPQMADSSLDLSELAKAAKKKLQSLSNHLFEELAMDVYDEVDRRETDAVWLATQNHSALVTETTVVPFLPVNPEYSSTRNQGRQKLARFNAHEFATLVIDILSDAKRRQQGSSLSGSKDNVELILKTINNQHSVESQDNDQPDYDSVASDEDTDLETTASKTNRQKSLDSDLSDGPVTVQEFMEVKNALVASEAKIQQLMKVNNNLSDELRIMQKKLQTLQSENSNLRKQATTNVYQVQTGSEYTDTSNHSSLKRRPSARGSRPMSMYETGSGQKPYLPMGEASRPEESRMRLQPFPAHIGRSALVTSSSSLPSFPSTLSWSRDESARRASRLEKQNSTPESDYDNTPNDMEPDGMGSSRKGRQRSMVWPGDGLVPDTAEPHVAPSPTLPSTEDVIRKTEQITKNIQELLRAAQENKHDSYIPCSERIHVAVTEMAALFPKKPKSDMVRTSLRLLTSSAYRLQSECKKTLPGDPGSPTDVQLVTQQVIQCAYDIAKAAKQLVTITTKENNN
UniProt Q9Y2X7: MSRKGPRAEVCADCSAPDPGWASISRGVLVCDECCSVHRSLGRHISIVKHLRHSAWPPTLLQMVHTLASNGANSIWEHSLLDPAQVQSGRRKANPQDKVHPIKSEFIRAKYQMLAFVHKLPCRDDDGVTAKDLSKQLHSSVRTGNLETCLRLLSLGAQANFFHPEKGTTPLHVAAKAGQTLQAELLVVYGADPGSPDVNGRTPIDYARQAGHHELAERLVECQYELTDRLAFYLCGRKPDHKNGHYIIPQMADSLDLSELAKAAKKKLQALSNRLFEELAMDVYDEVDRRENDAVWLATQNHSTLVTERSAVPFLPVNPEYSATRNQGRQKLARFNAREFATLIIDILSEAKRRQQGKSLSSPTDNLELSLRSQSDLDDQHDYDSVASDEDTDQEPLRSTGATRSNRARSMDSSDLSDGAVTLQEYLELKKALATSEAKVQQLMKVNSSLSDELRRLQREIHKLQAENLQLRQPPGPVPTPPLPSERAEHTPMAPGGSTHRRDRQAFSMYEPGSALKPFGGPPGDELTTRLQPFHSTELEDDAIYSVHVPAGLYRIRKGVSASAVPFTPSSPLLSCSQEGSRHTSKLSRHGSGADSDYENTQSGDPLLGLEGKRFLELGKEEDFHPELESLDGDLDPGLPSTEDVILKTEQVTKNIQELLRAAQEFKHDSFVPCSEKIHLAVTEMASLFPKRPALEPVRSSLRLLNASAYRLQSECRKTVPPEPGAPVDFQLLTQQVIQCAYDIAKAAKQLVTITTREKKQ
UniProt Q14155: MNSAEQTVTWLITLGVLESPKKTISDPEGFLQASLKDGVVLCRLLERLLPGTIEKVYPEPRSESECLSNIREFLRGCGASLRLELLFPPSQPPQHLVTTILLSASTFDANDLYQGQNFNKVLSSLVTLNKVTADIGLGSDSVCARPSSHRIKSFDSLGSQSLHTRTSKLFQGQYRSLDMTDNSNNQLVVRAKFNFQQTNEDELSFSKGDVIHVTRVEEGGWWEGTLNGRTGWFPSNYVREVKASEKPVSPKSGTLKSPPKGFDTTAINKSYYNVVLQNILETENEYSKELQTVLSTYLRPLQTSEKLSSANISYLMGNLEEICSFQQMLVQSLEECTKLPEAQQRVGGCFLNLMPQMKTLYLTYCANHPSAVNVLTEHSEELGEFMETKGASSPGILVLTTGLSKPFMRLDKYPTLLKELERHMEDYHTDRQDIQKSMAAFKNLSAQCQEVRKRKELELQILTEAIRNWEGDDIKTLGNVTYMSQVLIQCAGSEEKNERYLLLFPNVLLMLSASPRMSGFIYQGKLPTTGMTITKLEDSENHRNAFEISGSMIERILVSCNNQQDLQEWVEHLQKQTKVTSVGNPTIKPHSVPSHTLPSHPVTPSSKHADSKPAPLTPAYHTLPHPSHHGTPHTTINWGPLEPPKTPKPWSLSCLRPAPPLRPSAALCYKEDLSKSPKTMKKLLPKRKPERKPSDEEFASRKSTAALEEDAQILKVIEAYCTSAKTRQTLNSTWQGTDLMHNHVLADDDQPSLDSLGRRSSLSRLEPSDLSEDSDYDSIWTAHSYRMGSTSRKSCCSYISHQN

Biological target: human GIT2(ΔBCE)/Flag (human) (UniProt Q14161)
Experiment: co-IP

| Substance | binding |
| --- | --- |
| GIT1, endogenous (from UniProt Q9Y2X7 1-761) | no binding |
| β-PIX, endogenous (from UniProt Q14155 1-803) | binds weakly |

Results are given in words; binding and its absence hold for the method and conditions named. In cells and extracts the contact can be indirect. A result given as binding can be weak or reduced; the word gives no strength.
